Assay results: the supplement of paper PMC11438910
The list shows a part of the results. Most of these values are background signal.

Assays:
Assay in all cases: fluorescence intensity of antibody binding to polysaccharide-coupled beads; higher = stronger binding
[1] = target: pneumococcal polysaccharide Pn8
[2] = target: pneumococcal polysaccharide Pn9A
[3] = target: pneumococcal polysaccharide Pn9L
[4] = target: pneumococcal polysaccharide Pn9N
[5] = target: pneumococcal polysaccharide Pn9V
[6] = target: pneumococcal polysaccharide C-Poly-1
[7] = target: pneumococcal polysaccharide C-Poly-2
[8] = target: pneumococcal polysaccharide Pn1
[9] = target: pneumococcal polysaccharide Pn10A
[10] = target: pneumococcal polysaccharide Pn10B
[11] = target: pneumococcal polysaccharide Pn10C
[12] = target: pneumococcal polysaccharide Pn10F
[13] = target: pneumococcal polysaccharide Pn11A
[14] = target: pneumococcal polysaccharide Pn11B
[15] = target: pneumococcal polysaccharide Pn11C
[16] = target: pneumococcal polysaccharide Pn11D
[17] = target: pneumococcal polysaccharide Pn11F
[18] = target: pneumococcal polysaccharide Pn12A
[19] = target: pneumococcal polysaccharide Pn12B
[20] = target: pneumococcal polysaccharide Pn12F
[21] = antibody concentration 0.1 ng/mL
[22] = antibody concentration 0.534724 ng/mL
[23] = antibody concentration 2.8593 ng/mL
[24] = antibody concentration 15.2894 ng/mL
[25] = antibody concentration 81.7561 ng/mL
[26] = antibody concentration 437.17 ng/mL
[27] = antibody concentration 2337.65 ng/mL
[28] = antibody concentration 12500 ng/mL

B1: 3S41.3 (protein)
chain 1: EVQLVESGGGLVQPGGSLRLSCATSGFTFSNYWMYWFRQAPGKGLEWVSTISGSSSNTYYPDSVKGRFTISRDNAKNTLYLQINSLRAEDTAVYYCARRHDHSSGWAFDYWGQGVLVTVSS
chain 2: EIVMTQSPATLSLSPGERATLSCRASQSVGSNLAWYQQKPGQAPKLLIYDASSRATGIPDRFSGSGSGTDFTLTVSSLEPEDVGVYYCQQYNNWKTFGQGTKVEIK
fluorescence intensity [1, 21]: 21.5 MFI
fluorescence intensity [1, 22]: 22 MFI
fluorescence intensity [1, 23]: 21.8 MFI
fluorescence intensity [1, 24]: 21.5 MFI
fluorescence intensity [1, 25]: 24.8 MFI
fluorescence intensity [1, 26]: 32 MFI
fluorescence intensity [1, 27]: 52 MFI
fluorescence intensity [1, 28]: 112 MFI
fluorescence intensity [2, 21]: 19 MFI
fluorescence intensity [2, 22]: 19 MFI
fluorescence intensity [2, 23]: 19 MFI
fluorescence intensity [2, 24]: 19.5 MFI
fluorescence intensity [2, 25]: 18.2 MFI
fluorescence intensity [2, 26]: 27.5 MFI
fluorescence intensity [2, 27]: 89 MFI
fluorescence intensity [2, 28]: 358 MFI
fluorescence intensity [3, 21]: 17 MFI
fluorescence intensity [3, 22]: 17 MFI
fluorescence intensity [3, 23]: 16.2 MFI
fluorescence intensity [3, 24]: 17.8 MFI
fluorescence intensity [3, 25]: 17.5 MFI
fluorescence intensity [3, 26]: 20.8 MFI
fluorescence intensity [3, 27]: 56 MFI
fluorescence intensity [3, 28]: 167 MFI
fluorescence intensity [4, 21]: 14.5 MFI
fluorescence intensity [4, 22]: 15 MFI
fluorescence intensity [4, 23]: 15 MFI
fluorescence intensity [4, 24]: 14.5 MFI
fluorescence intensity [4, 25]: 15.2 MFI
fluorescence intensity [4, 26]: 20.5 MFI
fluorescence intensity [4, 27]: 66 MFI
fluorescence intensity [4, 28]: 229 MFI
fluorescence intensity [5, 21]: 14.5 MFI
fluorescence intensity [5, 22]: 13.5 MFI
fluorescence intensity [5, 23]: 14.8 MFI
fluorescence intensity [5, 24]: 15 MFI
fluorescence intensity [5, 25]: 16 MFI
fluorescence intensity [5, 26]: 20 MFI
fluorescence intensity [5, 27]: 27.5 MFI
fluorescence intensity [5, 28]: 38 MFI

B2: 4-173.3 (protein)
chain 1: QLQLQESGPGLVKPSETLSLTCAVSGGSINNNYWSWIRQPPGKGLEWIGRIFGSGGSTDYNPSLKSRVTISTDTSKTQFSLNLNSVTAADTAVYFCARGSYQVDYWGQGVLVTVSS
chain 2: QAALTQPPSMSGSPGQSVTISCTGTSSDIGGWNRVSWYQQYPGKAPKLMIYEVSKRPSGVSDRFSGSKSGNTASLTISGLQAEDEADYYCSSYVHINNALFGGGTRLTVL
fluorescence intensity [6, 21]: 24.5 MFI
fluorescence intensity [6, 22]: 22.5 MFI
fluorescence intensity [6, 23]: 26 MFI
fluorescence intensity [6, 24]: 24.5 MFI
fluorescence intensity [6, 25]: 25.5 MFI
fluorescence intensity [6, 26]: 27.8 MFI
fluorescence intensity [6, 27]: 35.5 MFI
fluorescence intensity [6, 28]: 99 MFI
fluorescence intensity [7, 21]: 19 MFI
fluorescence intensity [7, 22]: 19 MFI
fluorescence intensity [7, 23]: 21.5 MFI
fluorescence intensity [7, 24]: 20 MFI
fluorescence intensity [7, 25]: 19.5 MFI
fluorescence intensity [7, 26]: 22.5 MFI
fluorescence intensity [7, 27]: 29 MFI
fluorescence intensity [7, 28]: 81 MFI
fluorescence intensity [8, 21]: 12.5 MFI
fluorescence intensity [8, 22]: 12.8 MFI
fluorescence intensity [8, 23]: 13 MFI
fluorescence intensity [8, 24]: 13 MFI
fluorescence intensity [8, 25]: 14 MFI
fluorescence intensity [8, 26]: 14 MFI
fluorescence intensity [8, 27]: 15.5 MFI
fluorescence intensity [8, 28]: 29.8 MFI
fluorescence intensity [9, 21]: 26.5 MFI
fluorescence intensity [9, 22]: 25 MFI
fluorescence intensity [9, 23]: 25.5 MFI
fluorescence intensity [9, 24]: 25 MFI
fluorescence intensity [9, 25]: 26 MFI
fluorescence intensity [9, 26]: 26 MFI
fluorescence intensity [9, 27]: 26.5 MFI
fluorescence intensity [9, 28]: 35 MFI
fluorescence intensity [10, 21]: 24.5 MFI
fluorescence intensity [10, 22]: 22 MFI
fluorescence intensity [10, 23]: 21 MFI
fluorescence intensity [10, 24]: 21.8 MFI
fluorescence intensity [10, 25]: 22.8 MFI
fluorescence intensity [10, 26]: 24 MFI
fluorescence intensity [10, 27]: 25.5 MFI
fluorescence intensity [10, 28]: 29 MFI
fluorescence intensity [11, 21]: 16 MFI
fluorescence intensity [11, 22]: 16 MFI
fluorescence intensity [11, 23]: 13.5 MFI
fluorescence intensity [11, 24]: 15.5 MFI
fluorescence intensity [11, 25]: 16 MFI
fluorescence intensity [11, 26]: 16.5 MFI
fluorescence intensity [11, 27]: 17 MFI
fluorescence intensity [11, 28]: 20.5 MFI
fluorescence intensity [12, 21]: 21.2 MFI
fluorescence intensity [12, 22]: 19.5 MFI
fluorescence intensity [12, 23]: 21.5 MFI
fluorescence intensity [12, 24]: 19 MFI
fluorescence intensity [12, 25]: 19 MFI
fluorescence intensity [12, 26]: 18 MFI
fluorescence intensity [12, 27]: 19.8 MFI
fluorescence intensity [12, 28]: 23 MFI
fluorescence intensity [13, 21]: 28.5 MFI
fluorescence intensity [13, 22]: 24.8 MFI
fluorescence intensity [13, 23]: 28.2 MFI
fluorescence intensity [13, 24]: 27.5 MFI
fluorescence intensity [13, 25]: 28 MFI
fluorescence intensity [13, 26]: 30 MFI
fluorescence intensity [13, 27]: 34 MFI
fluorescence intensity [13, 28]: 46.8 MFI
fluorescence intensity [14, 21]: 21.5 MFI
fluorescence intensity [14, 22]: 25 MFI
fluorescence intensity [14, 23]: 20.5 MFI
fluorescence intensity [14, 24]: 22 MFI
fluorescence intensity [14, 25]: 23.8 MFI
fluorescence intensity [14, 26]: 24.5 MFI
fluorescence intensity [14, 27]: 27 MFI
fluorescence intensity [14, 28]: 34.5 MFI
fluorescence intensity [15, 21]: 24.5 MFI
fluorescence intensity [15, 22]: 21.5 MFI
fluorescence intensity [15, 23]: 21.5 MFI
fluorescence intensity [15, 24]: 20 MFI
fluorescence intensity [15, 25]: 22 MFI
fluorescence intensity [15, 26]: 22 MFI
fluorescence intensity [15, 27]: 27 MFI
fluorescence intensity [15, 28]: 80.5 MFI
fluorescence intensity [16, 21]: 21 MFI
fluorescence intensity [16, 22]: 22.2 MFI
fluorescence intensity [16, 23]: 23.5 MFI
fluorescence intensity [16, 24]: 22 MFI
fluorescence intensity [16, 25]: 22 MFI
fluorescence intensity [16, 26]: 22 MFI
fluorescence intensity [16, 27]: 25.8 MFI
fluorescence intensity [16, 28]: 47.5 MFI
fluorescence intensity [17, 21]: 14.5 MFI
fluorescence intensity [17, 22]: 13.5 MFI
fluorescence intensity [17, 23]: 12.5 MFI
fluorescence intensity [17, 24]: 13.8 MFI
fluorescence intensity [17, 25]: 12.8 MFI
fluorescence intensity [17, 26]: 12.8 MFI
fluorescence intensity [17, 27]: 14.2 MFI
fluorescence intensity [17, 28]: 21.5 MFI
fluorescence intensity [18, 21]: 16.5 MFI
fluorescence intensity [18, 22]: 16 MFI
fluorescence intensity [18, 23]: 14.5 MFI
fluorescence intensity [18, 24]: 13.5 MFI
fluorescence intensity [18, 25]: 14.2 MFI
fluorescence intensity [18, 26]: 13.8 MFI
fluorescence intensity [18, 27]: 18.8 MFI
fluorescence intensity [18, 28]: 30 MFI
fluorescence intensity [19, 21]: 15.5 MFI
fluorescence intensity [19, 22]: 15.5 MFI
fluorescence intensity [19, 23]: 15 MFI
fluorescence intensity [19, 24]: 14.8 MFI
fluorescence intensity [19, 25]: 14.5 MFI
fluorescence intensity [19, 26]: 14 MFI
fluorescence intensity [19, 27]: 18.5 MFI
fluorescence intensity [19, 28]: 27.5 MFI
fluorescence intensity [20, 21]: 18.5 MFI
fluorescence intensity [20, 22]: 18 MFI
fluorescence intensity [20, 23]: 18 MFI
fluorescence intensity [20, 24]: 18.8 MFI
fluorescence intensity [20, 25]: 18 MFI
fluorescence intensity [20, 26]: 19 MFI
fluorescence intensity [20, 27]: 21 MFI
fluorescence intensity [20, 28]: 36.5 MFI
